This assay can be described thus: qHTS Assay to Find Inhibitors of Chronic Active B-Cell Receptor Signaling. As to conditions: ABC-DLBCL IkBa-CBG/CBR reporter, luminescence ratio (green luciferase fused to IkBa over red control in TMD8 lymphoma cells), 4 h. In a few lines:
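TMD8 ABC-DLBCL cells carrying doxycycline-inducible green luciferase fused to IkappaBalpha plus unfused red luciferase were exposed to compounds (up to 46 uM) for 4 hrs at 37C. Activity came from the overlap-corrected green/red luminescence ratio.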
Background: qHTS replaces the single test concentration by a dilution series.

Where [1] appears, read: measured here: CBR red luminescence, cell number.
Where [2] appears, read: measured here: IkBa-CBG green luminescence.

The list shows a part of the results. Shown are side measurements of this screen, not its main read-out; they come without a call. Compounds called inactive in the main read-out are mostly missing here. Words in brackets tell the shape of the fitted curve; partial curves, single points and poor fits give uncertain potencies.

The text below walks through data of PubChem BioAssay AID493014 (National Center for Advancing Translational Sciences (NCATS), 2011).

A word on the AC50: it is the midpoint of the concentration-response curve, whichever way the signal moves. For `COc1ccc(Cl)cc1NC(=O)CSc1nc(C)cc(C)n1`, the AC50 under setting [1] is 11.2 µM [rising, partial curve, poor fit].

In the case of `CC(=O)Nc1ccc(S(=O)(=O)Nc2nc3ccccc3s2)cc1`, the half-maximal activity concentration (AC50) under setting [1] is 32.6 µM [rising, single point].

In the case of `COc1cccc(NC(=O)c2nc(S(C)(=O)=O)ncc2Cl)c1`, the half-maximal activity concentration (AC50) under setting [1] is 7.94 µM [falling, partial curve, poor fit].

For the compound `COc1ccc2nc(NC(=O)C(NS(=O)(=O)c3cccs3)C(C)C)sc2c1` (stereo unspecified), the AC50 under setting [1] was 5.8 µM [falling, single point].

Regarding `COc1ccc(N(CC(=O)NCCSc2ccccn2)S(=O)(=O)c2ccccc2)cc1Cl`, the concentration at half-maximal activity (AC50) under setting [1] was 35.5 µM [falling, single point].

Regarding `O=C(Nc1ccccc1Cl)C1CCN(Cc2cnn(-c3ccccc3)c2-n2cccc2)CC1`, the half-maximal activity concentration (AC50) under setting [1] is 20.6 µM [rising, partial curve, poor fit].

On to `COc1cccc(-c2nnc(NC(=O)c3ccc(Cl)s3)o2)c1`, for which, under setting [1], the AC50 was 2.59 µM [falling, full curve].

Turning to `O=C(/C=C\c1ccccc1OC(=O)c1ccccc1F)c1cc2ccccc2o1`, under setting [2], the concentration at half-maximal activity (AC50) was 20.6 µM [falling, single point].

With `COc1ccccc1NC(CC(=O)c1ccccc1)C(=O)OCC(=O)c1ccc(F)cc1` (stereo unspecified), the AC50 under setting [1] was 14.6 µM [falling, partial curve, poor fit].

Regarding `COc1ccc(OC)c(-n2c(SCC(=O)NCc3ccco3)nnc2-c2c[nH]c3ccccc23)c1`, the half-maximal activity concentration (AC50) under setting [1] is 14.1 µM [falling, single point].

Take `CN(C)CCCN(C(=O)c1ccco1)c1nc2ccc(Br)cc2s1`: the AC50 under setting [1] was 22.4 µM [falling, single point].

`N#Cc1cc2c(nc1SCC(O)CS(=O)(=O)Cc1ccccc1)CCCC2` (stereo unspecified): the half-maximal activity concentration (AC50) under setting [1] was 29.1 µM [falling, single point].

As to `COc1ccc(NC(=O)Oc2cc(C)ccc2C(C)C)cc1`, under setting [1], the concentration at half-maximal activity (AC50) is 14.1 µM [rising, single point].

Take `CC(=O)c1ccc(NC(=O)CSC(=S)N2CCCC2)cc1`: under setting [1], the AC50 was 17.8 µM [falling, partial curve].

Take `CC(C)(C)c1ccc(C(=O)Nc2cccc3ncccc23)cc1`: under setting [1], the AC50 is 2.51 µM [falling, full curve, poor fit].

Consider `Cn1cccc1/C=N/NC(=O)c1sc2ccccc2c1Cl`, for which the AC50 under setting [1] was 1 µM [falling, full curve, poor fit].

On to `COc1ccccc1-n1c(SCC(=O)O)nc2c(sc(=S)n2-c2ccc(C)c(C)c2)c1=O`, for which the AC50 under setting [1] was 15.8 µM [falling, single point].

Consider `Cc1ccc(CCNC(=O)c2ccc(CNS(=O)(=O)c3ccc(C)cc3)cc2)cc1`, for which the AC50 under setting [1] was 6.31 µM [rising, partial curve].

With `COC(=O)[C@@H]1C[C@H]2CC[C@H](O)C[C@H]2N1Cc1ccccc1OC(=O)c1cccs1`, under setting [1], the AC50 is 31.6 µM [rising, single point].

As to `Cc1cc(C)nc(/N=C2\NC(=O)CC(C(=O)O)N2c2ccc(Cl)cc2)n1` (stereo unspecified), the AC50 is, setting by setting: under setting [1], 29.1 µM [falling, single point]; under setting [2], 32.6 µM [rising, partial curve, poor fit].

As to `O=C(NCc1ccccn1)Nc1ccc2c(c1)OCO2`, the AC50 under setting [1] was 16.4 µM [falling, partial curve, poor fit].

As for `Fc1ccccc1CNC(=S)Nc1cccc(C(F)(F)F)c1`, under setting [1], the AC50 was 25.9 µM [falling, single point].

`Cc1ccccc1C(=O)Nc1cccc(C(=O)N/N=C/c2ccc3c(c2)OCO3)c1`: the AC50 under setting [1] was 1.78 µM [falling, partial curve].

Turning to `O=C(CCN1CCCCC1c1cccnc1)NCc1ccccc1` (stereo unspecified), under setting [1], the AC50 was 29.1 µM [rising, single point].

Regarding `O=C(O)CCC(=O)N1N=C(c2ccccc2)CC1c1ccc2nccnc2c1` (stereo unspecified), under setting [1], the half-maximal activity concentration (AC50) is 20.6 µM [rising, single point].

For `c1ccc(-c2ccc(-c3cn4c(n3)CCC4)cc2)cc1`, under setting [1], the half-maximal activity concentration (AC50) is 8.2 µM [falling, partial curve, poor fit].

Take `OCCN(CCO)c1ccc(C(c2ccc(Cl)cc2)c2ccc(N(CCO)CCO)cc2Cl)c(Cl)c1`: the AC50 under setting [1] is 29.1 µM [falling, single point] and the AC50 under setting [2] was 20.6 µM [rising, partial curve, poor fit].

As for `Cn1nc(C(=O)Nc2cccc(C(F)(F)F)c2)ccc1=O`, under setting [1], the half-maximal activity concentration (AC50) is 1.03 µM [rising, full curve, poor fit].

`O=C(Cn1c(=O)cnc2ccccc21)Nc1cccc(S(=O)(=O)N2CCCCC2)c1`: the half-maximal activity concentration (AC50) under setting [1] was 20.6 µM [falling, partial curve].

Regarding `COc1cccc(-c2cc(C(=O)Nc3ccc4c(c3)OCO4)no2)c1`, the AC50 under setting [1] was 1.26 µM [falling, partial curve, poor fit].

As to `CC1CCc2nc(NC(=O)c3ccco3)sc2C1` (stereo unspecified), the AC50 under setting [1] is 10.3 µM [falling, partial curve].

Regarding `Cc1ccc(NC(=O)c2ccc(COc3ccccc3[N+](=O)[O-])o2)nc1`, the AC50 under setting [1] is 1.46 µM [falling, full curve].

As to `Cc1ccc(-c2cc(C(F)F)nc(NCc3cccs3)n2)cc1`, the AC50 under setting [1] is 18.4 µM [rising, single point].

Consider `COc1ccccc1-c1c(C#N)c(N)nc2c1CCc1ccccc1-2`, for which, under setting [1], the half-maximal activity concentration (AC50) was 3.66 µM [falling, single point].

On to `CC(C)CC(C(=O)Nc1oc(-c2ccccc2)c(-c2ccccc2)c1C#N)N1C(=O)c2ccccc2C1=O` (stereo unspecified), for which, under setting [1], the AC50 is 6.51 µM [falling, full curve].

With `Cc1ccccc1OCC(=O)Nc1nc(-c2ccncc2)cs1`, the AC50 under setting [1] was 14.6 µM [falling, partial curve].

With `Cc1cc2nc3c(c(=O)n2[nH]1)CCCC3`, the concentration at half-maximal activity (AC50) under setting [1] is 29.1 µM [rising, single point].

As for `COc1ccc(C2=NN3C(C2)c2ccccc2OC3c2cccs2)cc1` (stereo unspecified), the AC50 under setting [1] is 25.1 µM [falling, single point].

In the case of `OCC[C@@H]1C[C@@H](O)[C@H](O)[C@]2(CCc3ccccc3CO2)O1`, under setting [1], the concentration at half-maximal activity (AC50) is 12.6 µM [rising, partial curve, poor fit].

For the compound `O=c1c2sccc2nc(SCc2cc(=O)n3ccccc3n2)n1-c1ccc(Br)cc1`, the AC50 under setting [1] was 0.00517 µM [rising, full curve, poor fit].

For the compound `O=C(NCC(c1ccco1)N1CCN(c2ccc(F)cc2)CC1)C(=O)NC1CCCCC1` (stereo unspecified), the AC50 under setting [1] is 9.2 µM [falling, partial curve].

For `CCOc1cc(C(c2c(C)[nH][nH]c2=O)c2c(C)[nH][nH]c2=O)cc(Cl)c1O`, under setting [1], the AC50 is 10 µM [falling, partial curve, poor fit].

For `Cc1ccccc1NC(=O)CN1CCC(NC(=O)Nc2ccccc2)CC1`, under setting [1], the concentration at half-maximal activity (AC50) was 16.4 µM [rising, single point].

Consider `O=S(=O)(c1ccccc1)N1N=C(c2ccc(O)cc2)CC1c1ccco1` (stereo unspecified), for which the AC50 under setting [1] is 12.6 µM [falling, partial curve, poor fit].

On to `COc1cc(/C=C/C(=O)OCC(=O)NC2CCCCCCC2)ccc1O`, for which the AC50 under setting [1] was 1.16 µM [rising, partial curve, poor fit].

As for `Cc1cccc(NC(=O)C(=O)NCCCc2ccccc2)c1`, under setting [1], the AC50 was 20.6 µM [falling, partial curve].

`COc1ccc(C2c3ccc4ccccc4c3Oc3ncn(CCCO)c(=N)c32)cc1OC` (stereo unspecified): the AC50 under setting [2] was 11.2 µM [falling, partial curve, poor fit].

On to `Nc1c(-c2cccs2)cnc2c(-c3ccc(F)cc3)cnn12`, for which the AC50 under setting [1] was 0.631 µM [rising, full curve, poor fit].

Regarding `NC(=O)NC(=O)COC(=O)/C=C/c1cccc(Br)c1`, the AC50 under setting [1] was 12.6 µM [falling, single point].

On to `CCOc1ccc(S(=O)(=O)Nc2ccc(C(=O)N3CCC3)cc2)cc1`, for which, under setting [1], the concentration at half-maximal activity (AC50) was 4.61 µM [rising, full curve, poor fit].

For `O=C(NC(=S)Nc1ccc2oc(=O)ccc2c1)c1cccc(F)c1`, the AC50 under setting [1] was 3.55 µM [rising, full curve, poor fit].

Turning to `O=C(CSc1nc(-c2ccccc2Cl)ns1)c1ccc(Cl)cc1`, under setting [1], the half-maximal activity concentration (AC50) was 5.8 µM [rising, partial curve, poor fit].

In the case of `CC(C)c1nc2n[nH]c(N)c2c2c1CSC(C)(C)C2`, the AC50 under setting [1] was 18.4 µM [rising, single point].

Take `O=C(NCCc1ccccc1)C1CCN(S(=O)(=O)c2ccccc2)CC1`: under setting [1], the concentration at half-maximal activity (AC50) was 32.6 µM [rising, single point].

With `O=C(/C=C/c1ccccc1)Nc1cccc(C(=O)O)c1`, the concentration at half-maximal activity (AC50) under setting [1] was 0.562 µM [falling, full curve].

For `C=CCOc1ccc(CNc2nccs2)cc1OC`, the half-maximal activity concentration (AC50) reads like this: under setting [1], 10.3 µM [rising, partial curve]; under setting [2], 20.6 µM [falling, single point].

For the compound `COc1cc(OC)cc(-c2nc3ccccc3c(=O)n2OC(=O)c2ccccc2C)c1`, the AC50 under setting [1] is 20.6 µM [falling, partial curve, poor fit].

Consider `CC(Cc1cccs1)NC(=O)Nc1ccc(F)cc1` (stereo unspecified), for which, under setting [1], the AC50 was 0.461 µM [rising, partial curve, poor fit].

As for `O=C(O)c1ccc(/C=N/NC(=O)c2ccc(F)cc2)cc1`, the half-maximal activity concentration (AC50) under setting [1] was 7.08 µM [falling, partial curve].

Consider `COc1ccc(-c2nn(CCC#N)cc2C(=O)Nc2cccc(C(=O)O)c2)cc1[N+](=O)[O-]`, for which the half-maximal activity concentration (AC50) under setting [1] is 3.98 µM [falling, single point].

In the case of `Cc1cc2cc(CCNC(=O)CC(C)(C)C)c(=O)[nH]c2cc1C`, under setting [1], the AC50 is 14.6 µM [rising, partial curve, poor fit].

Consider `CC(=O)c1c(C)[nH]c(C(=O)OCC(=O)Nc2cc(C)on2)c1C`, for which the concentration at half-maximal activity (AC50) under setting [1] is 6.51 µM [falling, single point].

As to `Cc1nnc(SCC(=O)Nc2nccs2)s1`, the concentration at half-maximal activity (AC50) under setting [1] is 20.6 µM [falling, partial curve].
